Assay results from patent US20060281081A1.
Results are given in words; binding and its absence hold for the method and conditions named. For part of these data: In cells and extracts the contact can be indirect. Some entries that bind do so weakly or less than the wild type. For part of these data: Where a sequence is shown, tags or fusion partners need not be part of it.

Legend:
[1] = target: CENPC1 (yeast two-hybrid clone from human testis cDNA library) (human) (UniProt Q03188); test: yeast two-hybrid screen, confirmed by simultaneous transformation
[2] = target: T1, SOX30 (yeast two-hybrid clone from human testis cDNA library) (human) (UniProt O94993); test: as above
T1 sequence (looked up): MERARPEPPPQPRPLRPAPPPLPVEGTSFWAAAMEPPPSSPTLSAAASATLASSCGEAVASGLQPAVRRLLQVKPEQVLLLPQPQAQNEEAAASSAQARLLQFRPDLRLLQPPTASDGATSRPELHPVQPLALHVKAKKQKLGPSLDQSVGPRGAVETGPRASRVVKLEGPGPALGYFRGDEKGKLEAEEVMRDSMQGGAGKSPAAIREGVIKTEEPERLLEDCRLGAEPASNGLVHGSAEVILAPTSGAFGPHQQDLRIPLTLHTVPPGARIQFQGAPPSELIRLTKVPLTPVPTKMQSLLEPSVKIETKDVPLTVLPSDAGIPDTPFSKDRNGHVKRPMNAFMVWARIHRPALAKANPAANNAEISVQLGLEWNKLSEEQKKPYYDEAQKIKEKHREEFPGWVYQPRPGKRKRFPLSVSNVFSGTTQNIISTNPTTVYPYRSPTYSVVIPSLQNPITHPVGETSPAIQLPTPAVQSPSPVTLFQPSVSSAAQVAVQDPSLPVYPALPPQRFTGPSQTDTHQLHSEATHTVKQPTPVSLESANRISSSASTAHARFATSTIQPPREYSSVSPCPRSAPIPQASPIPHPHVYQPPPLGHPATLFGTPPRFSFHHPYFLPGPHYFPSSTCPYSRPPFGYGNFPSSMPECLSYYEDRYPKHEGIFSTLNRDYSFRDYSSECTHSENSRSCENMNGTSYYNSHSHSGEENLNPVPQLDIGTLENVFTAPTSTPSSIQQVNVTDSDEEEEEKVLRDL

HA-tagged CENPC1 (human) [3] = target: HA-tagged CENPC1 (human) (UniProt Q03188); test: co-immunoprecipitation from COS7 cells: anti-Flag IP, anti-HA western blot
HA-tagged CENPC1 (human) [4] = target: HA-tagged CENPC1 (human) (UniProt Q03188); test: co-immunoprecipitation: anti-Flag M2 IP, anti-HA immunoblot
HA-tagged Zyxin [5] = target: T2, HA-tagged Zyxin (UniProt Q15942); test: as above
T2 sequence (looked up): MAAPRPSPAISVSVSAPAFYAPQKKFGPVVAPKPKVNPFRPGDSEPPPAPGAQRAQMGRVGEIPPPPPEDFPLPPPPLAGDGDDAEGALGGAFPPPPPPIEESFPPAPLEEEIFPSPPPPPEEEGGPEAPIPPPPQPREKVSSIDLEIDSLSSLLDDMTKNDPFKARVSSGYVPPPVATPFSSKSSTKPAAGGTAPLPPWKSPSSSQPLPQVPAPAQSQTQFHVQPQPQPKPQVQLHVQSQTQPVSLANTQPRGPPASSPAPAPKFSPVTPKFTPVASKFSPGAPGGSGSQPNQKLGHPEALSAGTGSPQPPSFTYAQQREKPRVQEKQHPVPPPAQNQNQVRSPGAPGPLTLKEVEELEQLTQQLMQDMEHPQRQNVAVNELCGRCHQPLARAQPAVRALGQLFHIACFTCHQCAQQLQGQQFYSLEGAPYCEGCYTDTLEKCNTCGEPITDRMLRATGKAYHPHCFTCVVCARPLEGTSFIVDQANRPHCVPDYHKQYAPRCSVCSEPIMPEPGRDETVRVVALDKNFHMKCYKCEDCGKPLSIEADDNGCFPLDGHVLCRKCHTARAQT

HA-tagged Zyxin [6] = target: T2, HA-tagged Zyxin; test: co-immunoprecipitation from HeLa cells: anti-Flag IP, anti-HA western blot

B1: N-terminal region of NFXL1 (NFXL1-N), yeast two-hybrid bait from pAS2-NFXL1-N (protein, not shown: small tags and cut ends)
chain: MEASWRQVAGGRGRSRGRATAAPSGNGVHLRGAGGGREKGSVGAVPSGTSPGGVATTAAAGSRHSPAGSQALQTTAASELMSQKKFEEIKKANQAAARKLVEEQFSSSSEEGDEDFEGKQGKILANTFITYTTQTDGDTRELERTKQYVNEAFQAGAMTCLICIASVKRNQAVWSCSGCFCIFHMPCIQKWAKDSQFLVSSVTDDDFGKKDCPWPCPKCRFEYKRSETPSRYYCYCGKVEDPPLDPWLVPHSCGQVCEREFKPP
binding [1]: binds
binding [2]: binds

B2: Flag-tagged NFXL1 (protein, not shown: small tags and cut ends)
chain: MEASWRQVAGGRGRSRGRATAAPSGNGVHLRGAGGGREKGSVGAVPSGTSPGGVATTAAAGSRHSPAGSQALQTTAASELMSQKKFEEIKKANQAAARKLVEEQFSSSSEEGDEDFEGKQGKILANTFITYTTQTDGDTRELERTKQYVNEAFQAGAMTCLICIASVKRNQAVWSCSGCFCIFHMPCIQKWAKDSQFLVSSVTDDDFGKKDCPWPCPKCRFEYKRSETPSRYYCYCGKVEDPPLDPWLVPHSCGQVCEREFKPPCGHKCLLLCHPGPCPPCPKMVTTTCYCKKAKPIPRRCSAKEWSCQLPCGQKLLCGQHKCENPCHAGSCQPCPRVSRQKCVCGKKVAERSCASPLWHCDQVCGKTLPCGNHTCEQVCHVGACGECPRSGKRFCPCQKSKFSLPCTEDVPTCGDSCDKVLECGIHRCSQRCHRGPCETCRQEVEKHCRCGKHTKRMPCHKPYLCETKCVKMRDCQKHQCRRKCCPGNCPPCDQNCGRTLGCRNHKCPSVCHRGSCYPCPETVDVKCNCGNTKVTVPCGRERTTRPPKCKEQCSRPPTCHHTSQEKHRCHFGSCPPCHQPCQKVLEKCGHLCPAPCHDQALIKQTGRHQPTGPWEQPSEPAFIQTALPCPPCQVPIPMECLGKHEVSPLPCHAVGPYSCKRVCGRILDCQNHTCMKECHKVTKTDGCTGKNKAGPECLHCEEGCSKSRPLGCLHPCILRCHPGECPPCVQMLRIKCHCKITSLYVECRKITTADVNEKNLLSCCKNQCPKELPCGHRCKEMCHPGECPFNCNQKVKLRCPCKRIKKELQCNKVRENQVSIECDTTCKEMKRKASEIKEAEAKAALEEEKRRQQAELEAFENRLKGRRKKNRKRDEVAVELSLWQKHKHYLISVCGVVVVVFAWYITHDVN
binding (HA-tagged CENPC1 (human) [3]): binds
binding (HA-tagged CENPC1 (human) [4]): binds

B3: Flag-tagged ARHCL1 (protein, not shown: small tags and cut ends)
chain: MLTRVKSAVANFMGGIMAGSSGSEHGGGSCGGSDLPLRFPYGRPEFLGLSQDEVECSADHIARPILILKETRRLPWATGYAEVINAGKSTHNEDQASCEVLTVKKKAGAVTSTPNRNSSKRRSSLPNGEGLQLKENSESEGVSCHYWSLFDGHAGSGAAVVASRLLQHHITEQLQDIVDILKNSAVLPPTCLGEEPENTPANSRTLTRAASLRGGVGAPGSPSTPPTRFFTEKKIPHECLVIGALESAFKEMDLQIERERSSYNISGGCTALIVICLLGKLYVANAGDSRAIIIRNGEIIPMSSEFTPETERQRLQYLAFMQPHLLGNEFTHLEFPRRVQRKELGKKMLYRDFNMTGWAYKTIEDEDLKFPLIYGEGKKARVMATIGVTRGLGDHDLKVHDSNIYIKPFLSSAPEVRIYDLSKYDHGSDDVLILATDGLWDVLSNEEVAEAITQFLPNCDPDDPHRYTLAAQDLVMRARGVLKDRGWRISNDRLGSGDDISVYVIPLIHGNKLS
binding (HA-tagged Zyxin [5]): binds
binding (HA-tagged Zyxin [6]): binds
